The nature of the assay: IkB Signaling. Particulars: ABC-DLBCL IkBa-CBG/CBR dual luciferase ratio (green luciferase fused to IkBa over red control in OCI-Ly3 lymphoma cells), 4 h. The gist of the method: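 In this assay, an IκBα–CBG68 fusion accumulates when IKK-driven degradation is blocked; native CBR normalizes for cell number. OCI-Ly3 cells were treated 4 h with compound and doxycycline, then green and red light read after Chroma-Glo addition.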
Where [1] appears, read: measured here: control luc red channel unless noted.

The list shows a part of the results. Further columns of the screen follow, without active or inactive calls. Compounds called inactive in the main read-out are mostly missing here. Words in brackets tell the shape of the fitted curve; partial curves, single points and poor fits give uncertain potencies.

By AC50 is commonly meant the midpoint of the concentration-response curve, whichever way the signal moves.

On to `Cc1nnc2c3ccccc3nc(N3CCN(c4cccc(Cl)c4)CC3)n12`, for which, under setting [1], the AC50 was 25.1 µM [falling, single point].

On to `Cc1cccc(-n2ncc3c(Nc4c(C)cc(C)cc4C)ncnc32)c1`, for which the AC50 under setting [1] was 31.6 µM [falling, single point].

`Oc1ccc(Nc2nc(-c3ccc(Cl)cc3)nc3ccccc23)cc1`: the AC50 under setting [1] is 25.1 µM [falling, single point].

With `CCc1ccc(NC(=O)c2oc3c(c2C)-c2[nH]ncc2CC3)cc1`, under setting [1], the AC50 is 20 µM [falling, single point].

As to `CCc1ccc(NC(=O)c2ccc3c(c2)c(C)c(C)n3Cc2ccccc2)cc1`, the AC50 under setting [1] was 3.16 µM [rising, full curve].

Regarding `COc1ccc(NC(=O)c2cc(-c3cc(C)cc(C)c3O)n[nH]2)cc1Cl`, under setting [1], the AC50 is 3.16 µM [falling, full curve].

Take `COc1ccc(CCC(=O)NCc2nc3cccnc3n2Cc2ccc(OC)cc2)cc1`: the AC50 under setting [1] was 15.8 µM [rising, partial curve, poor fit].

For the compound `Cn1cc(S(=O)(=O)N2CCCCCC2)cc1C(=O)N1CCN(c2ccc(Cl)cc2)CC1`, under setting [1], the AC50 was 20 µM [falling, partial curve].

On to `Clc1ccc(CCNC(c2cccc(Cl)c2)c2nnc(-c3ccccc3)o2)cc1` (stereo unspecified), for which the AC50 under setting [1] was 20 µM [falling, partial curve].

Regarding `Cc1nn(C)c2c1c(C(F)(F)F)cc(=O)n2C(C)C(=O)N1CCN(c2ccccc2)CC1` (stereo unspecified), under setting [1], the AC50 was 20 µM [falling, partial curve].

Regarding `CC1=C(C(=O)Nc2ccccc2)C(c2ccccc2Cl)n2ncc(C(=O)Nc3cccc(C)c3)c2N1` (stereo unspecified), the AC50 under setting [1] is 12.6 µM [falling, partial curve].

Turning to `CC(C)(C)OC(=O)N1CCC(c2c(C(=O)N3CCOCC3)cnn2-c2ccccc2Cl)CC1`, the half-maximal activity concentration (AC50) under setting [1] is 0.00794 µM [falling, full curve, poor fit].

`COc1ccc(-c2nc(SCC(=O)Nc3cccc(C(C)=O)c3)n[nH]2)cc1`: the concentration at half-maximal activity (AC50) under setting [1] was 12.6 µM [falling, single point].

`O=C(Cc1ccccc1)Nc1cc(-c2nc3cc(Cl)ccc3o2)ccc1Cl`: under setting [1], the AC50 was 20 µM [falling, single point].

On to `COc1cccc(N(Cc2nnc3n2CCCCC3)C(=O)Nc2cccc(Cl)c2)c1`, for which the AC50 under setting [1] was 10 µM [rising, partial curve, poor fit].

On to `COC1=C(OC)c2ccccc2C(C(=O)O)N/C1=C(/C)Nc1ccncc1` (stereo unspecified), for which the AC50 under setting [1] was 10 µM [falling, partial curve].

In the case of `O=C(NCC(c1cccs1)S(=O)(=O)c1cccs1)c1ccc(C(F)(F)F)cc1` (stereo unspecified), under setting [1], the AC50 is 31.6 µM [falling, single point].

Turning to `CCOc1ccccc1NC(=O)N1CCCn2nc(C)cc21`, the AC50 under setting [1] is 3.16 µM [falling, partial curve].

For `COc1ccc(N(C(=O)COc2ccc(Br)cc2)S(=O)(=O)c2ccc(C)cc2)cc1`, the AC50 under setting [1] was 6.31 µM [falling, partial curve].

Take `O=C(OCc1ccccc1Cl)c1ccc(-c2nnn(Cc3ccccc3Cl)n2)cc1`: the AC50 under setting [1] was 5.01 µM [rising, partial curve].

Take `CCCn1c(N2CCC(Cc3ccccc3)CC2)nc2c1c(=O)[nH]c(=O)n2C`: under setting [1], the AC50 was 25.1 µM [falling, single point].

As for `O=C(O)CCc1ccc(-c2ccccc2)n1-c1cccc(Br)c1`, the AC50 under setting [1] was 15.8 µM [falling, partial curve].

Take `Cc1ccc(S(=O)(=O)N[C@@H](Cc2ccccc2)C(=O)CCl)cc1`: the AC50 (measured here: IkB-luc green channel) is 3.16 µM [falling, partial curve] and the AC50 (measured here: control luc red channel) is 6.31 µM [falling, full curve].

With `COc1cc(/C=C/c2nc(C#N)c(NC(C)c3ccccc3)o2)cc(OC)c1OC` (stereo unspecified), the AC50 under setting [1] is 12.6 µM [falling, partial curve].

With `COc1cccc(-c2ccc3ncnc(NCc4ccccc4OC)c3c2)c1`, the AC50 under setting [1] is 3.98 µM [falling, partial curve].

On to `CN(Cc1ccccc1)C(=O)c1cc2c(s1)-c1ccc(Cl)cc1SC2`, for which, under setting [1], the AC50 is 39.8 µM [falling, single point].

Take `CCN(c1ccccc1)S(=O)(=O)c1ccc(NCC2COc3ccccc3O2)nc1` (stereo unspecified): the AC50 under setting [1] is 15.8 µM [falling, partial curve].

Turning to `CCOC(=O)CCN(c1ccccc1)S(=O)(=O)c1ccc2[nH]c(=O)ccc2c1`, under setting [1], the AC50 is 0.2 µM [falling, full curve, poor fit].

Consider `O=C(c1ccc(Cl)cc1)n1nc(-c2ccco2)nc1NCc1cccs1`, for which the AC50 under setting [1] was 20 µM [falling, single point].

For the compound `CCc1ccc(Oc2nc3c(C)cccn3c(=O)c2/C=C(\C#N)c2nc3ccccc3s2)cc1`, the AC50 under setting [1] was 6.31 µM [falling, partial curve].

For `CN(C)c1ccc(-c2cncnc2Nc2ccc(F)cc2)cc1`, the concentration at half-maximal activity (AC50) under setting [1] was 3.98 µM [falling, partial curve].

Turning to `Cc1ccc2oc(C(=O)N(Cc3cccc(F)c3)C3CCS(=O)(=O)C3)c(C)c2c1` (stereo unspecified), under setting [1], the AC50 is 25.1 µM [falling, single point].

Turning to `Clc1ccc(OCc2nc(-c3ccncc3)no2)c(Cl)c1`, under setting [1], the AC50 was 39.8 µM [falling, single point].

In the case of `COc1cccc(OC)c1C(=O)Nc1nnc(C)s1`, the AC50 under setting [1] was 3.16 µM [rising, partial curve].

For the compound `O=C(COC(=O)C(Cc1c[nH]c2ccccc12)NC(=O)c1ccc(Br)cc1)c1ccc(Cl)cc1` (stereo unspecified), the AC50 under setting [1] is 25.1 µM [falling, single point].

For the compound `Cc1ccc2[nH]c3c(c2c1)CN(C(=O)CN1CCN(c2cccc(C)c2C)CC1)CC3`, the AC50 under setting [1] is 12.6 µM [falling, partial curve].

As for `CCOc1ccc(NC(=O)C2CCN(S(=O)(=O)c3cc(-c4noc(C)n4)ccc3C)CC2)cc1`, the AC50 under setting [1] was 0.0631 µM [rising, full curve, poor fit].

Turning to `CSc1cccc(-c2nnc(NC(=O)c3ccc4c(c3)OCCO4)o2)c1`, the AC50 under setting [1] is 2 µM [falling, partial curve].

Turning to `Oc1ccc2cc(SSc3ccc4cc(O)ccc4c3)ccc2c1`, the AC50 under setting [1] is 39.8 µM [rising, single point] [measured here: IkB-luc green channel].

For the compound `O=C(CCc1cn(Cc2ccccc2F)c2ccccc12)NCc1ccc(Cl)cc1`, the AC50 under setting [1] was 7.94 µM [falling, partial curve].

Values taken from PubChem BioAssay AID445 (National Center for Advancing Translational Sciences (NCATS), 2006).
